For assay [1], the target named is cyno TfR extracellular domain (analogous construct to human TfR ecd) (cynomolgus monkey). The assay can be described thus: ELISA. A general note: An ELISA detects its analyte on a solid surface through an enzyme-linked reagent.
Assay [2] concerns the target cyno TfR, full length, transiently expressed in 293 cells (cynomolgus monkey). The assay can be described thus: FACS, 293 cells, 1 uM holo-Tf. Background: A flow cytometer gives signals particle by particle.
The target is the same in assay [3]. Kind of assay: FACS on transfected 293 cells, 1 uM holo-Tf present.
Assay [4] deals with His-tagged BACE1 protein (Example 15) (Homo sapiens (Human)) (UniProt P56817). Kind of assay: SPR, His-BACE1 captured by anti-His, Fab injected. A general note: SPR reads the build-up and loss of mass on a sensor chip optically.

Chains of the proteins cited; added tags and fusions are not shown. Lines headed by an entry give the natural chain unless they say otherwise; changes in a name come on top.
UniProt P56817: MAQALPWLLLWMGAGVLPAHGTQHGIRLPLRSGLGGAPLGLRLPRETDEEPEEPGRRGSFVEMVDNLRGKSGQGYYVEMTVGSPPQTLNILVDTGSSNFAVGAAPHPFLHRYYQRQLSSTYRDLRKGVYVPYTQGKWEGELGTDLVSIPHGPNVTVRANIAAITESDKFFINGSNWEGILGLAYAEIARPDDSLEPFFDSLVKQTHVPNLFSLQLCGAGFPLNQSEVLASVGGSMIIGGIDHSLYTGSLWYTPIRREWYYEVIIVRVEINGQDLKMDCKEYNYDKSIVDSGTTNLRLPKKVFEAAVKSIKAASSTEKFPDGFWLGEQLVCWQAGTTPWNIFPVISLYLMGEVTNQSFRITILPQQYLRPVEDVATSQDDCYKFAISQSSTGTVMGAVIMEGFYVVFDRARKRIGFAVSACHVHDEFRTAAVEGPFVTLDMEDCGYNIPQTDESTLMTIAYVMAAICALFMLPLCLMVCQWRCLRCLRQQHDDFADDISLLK

The values that follow come from patent US20180057604A1.

Results are given in words; binding and its absence hold for the method and conditions named. Some binding calls cover weakened binding; strength is not graded here.

B1: 7A4 HC/8A2 LC (antibody, V domains shown)
VH: QVQLQQSGPELVRPGVSVKISCKGSGYTFTDYAMHWVKQSHAKSLEWIGGISTYFGRTNYNQKFKGRATMTVDKSSSTAYMELARLTSEDSALYYCARGLSGNYVMDYWGQGTSVTVSS
VL: DIVLTQSPASLAVSLGQRATISCRASESVDSYGNSFMHWYQQKPGQPPKLLIYRASNLESGIPARFSGSGSRTDFTLTINPVEADDVATYYCQQSNEGPPTFGGGTKLEIK
B1: the binding result in assay [1] was “binds”.

B2: 13D4 (antibody, V domains shown)
VH: QVQLQQSGAELMKPGASVKISCKAAGYTFSNYWIEWVKQRPGHGLEWIGEILPGSGSTKYNEKFKGKATFTADTSSNTAYMQLSSLTSEDSAVYYCARRGGYGYDGEFAYWGQGTLVTVSA
VL: DIQMTQTTSSLSASLGDRVTINCRAGQDITNYLNWFQQKPDGTVKLLIYYTSRLHSGVPSRFSGSGSGTDYSLTITNLEQEDIATYFCQQANTLPYTFGGGTKLEIK
As to B2, the binding entry in assay [1], in assay [2] and in assay [3] was “binds” each time.

B3: 1B12 (antibody, V domains shown)
VH: EVKLVESGGGLVQPGGFLKLSCATSGFTFSDYYMYWVRQTPEKRLEWVASISNGGDNTYYPDTVKGRFTISRDNAKNTLYLQMSRLKSEDTAMYYCARQGALYDGYYRGAMDYWGQGTSVTVSS
VL: QIVLTQSPAIMSASLGGRVTMTCTTSSSVPSSYFHWYQQKPGSSPKLWIYSTSNLASGVPARFSGSGSGTSYSLTISSMEAEDAATYYCHQYHRSPFTFGSGTKLEIK
On to B3, for which the binding entry in assay [1], in assay [2] and in assay [3] was “binds” throughout.

B4: 7G7 (antibody, V domains shown)
VH: QVQLQQPGSELVRPGASVKLSCKASGYTFTSYWMHWVKQRHGQGLEWIGNIYPGSGSTKYDERFKSKGTLTVDTSSSTAYMHLSSLTSEDSAVYYCTRGGYDSRAWFAYWGQGTLVTVSA
VL: DIVLTQSPASLAVSLGQRATISCRARQSVSTSSYSFMHWYRQKAGQPPKLLIKYASIQESGVPARFSGSGSGTDFTLNILPVEEEDTATYYCQHTWEIPFTFGSGTKLEIK
For the molecule B4, the binding result in assay [1], in assay [2] and in assay [3] was “binds” each time.

B5: 4C2 (antibody, V domains shown)
VH: QVQLQQPGSELVRPGASVKLSCKASGYTFTSYWMHWVKQRHGQGLEWIGNIYPGSGSTKYDEKFKSKGTLTVDTSSSTAYMHLSSLTSEDSAVYYCTRGGYDSRAWFAHWGQGTLVTVSA
VL: DIVLTQSPASLAVSLGQRATISCRARQSVSTSSYSFMHWYQQKPGQPPKLLIKYASIQESGVPARFSGSGSGTDFTLNILPVEEEDTATYYCQHTWEIPFTFGSGTNLEIK
For the molecule B5, the binding entry in assay [1], in assay [2] and in assay [3] was “binds” throughout.

B6: 6266.1 Fab (Fab, V domains shown)
VH: QVQLVQSGAEVKKPGSSVKVSCKASGGTLSHYGVSWVRQAPGQGLEWMGNIIPGIGTANYAQKFQGRVTITADESTSTAYMELSSLRSEDTAVYYCARSGGTKYGMLDVWGQGTMVTVSS
VL: EIVMTQSPATLSVSPGERATLSCRASQSVSSNLAWYQQKPGQAPRLLIYGASTRATGIPARFSGSGSGTEFTLTISSLQSEDFAVYYCQQLILWPPRTFGGGTKVEIK
On to B6, for which the binding result in assay [4] is “binds”.

B7: 6266.8 Fab (Fab, V domains shown)
VH: QVQLVQSGAEVKKPGSSVKVSCKASGGTLKGYGVSWVRQAPGQGLEWMGNIIPGFGTANYAQKFQGRVTITADESTSTAYMELSSLRSEDTAVYYCARGGGTKYGMLDVWGQGTMVTVSS
VL: EIVMTQSPATLSVSPGERATLSCRASQSVSSNLAWYQQKPGQAPRLLIYGASTRAYGIPARFSGSGSGTEFTLTISSLQSEDFAVYYCQQLILWPPRTFGGGTKVEIK
Take B7: in assay [4], the binding entry was “binds”.

B8: 6266.12 Fab (Fab, V domains shown)
VH: QVQLVQSGAEVKKPGSSVKVSCKASGGTLNGYGVSWVRQAPGQGLEWMGNIIPGFGTANYAQKFQGRVTITADESTSTAYMELSSLRSEDTAVYYCARSGGTKYGMLDVWGQGTMVTVSS
VL: EIVMTQSPATLSVSPGERATLSCRASQSVSSNLAWYQQKPGQAPRLLIYGASTRATGIPARFSGSGSGTEFTLTISSLQSEDFAVYYCQQLILWPPRTFGGGTKVEIK
Turning to B8, the binding result in assay [4] is on record as “binds”.

B9: 6266.5 Fab (Fab, V domains shown)
VH: QVQLVQSGAEVKKPGSSVKVSCKASGGTLSHYGVSWVRQAPGQGLEWMGNIIPGIGTANYAQKFQGRVTITADESTSTAYMELSSLRSEDTAVYYCARSGGTQYGMLDVWGQGTMVTVSS
VL: EIVMTQSPATLSVSPGERATLSCRASQSVSSNLAWYQQKPGQAPRLLIYGASKRATGIPARFSGSGSGTEFTLTISSLQSEDAAVYYCQQLILWPPRTFGGGTKVEIK
For B9, in assay [4], the binding entry was “binds”.

B10: 6266.11 Fab (Fab, V domains shown)
VH: QVQLVQSGAEVKKPGSSVKVSCKASGGTLSGYGVSWVRQAPGQGLEWMGNIIPGFGTANYAQKFQGRVTITADESTSTAYMELSSLRSEDTAVYYCARSGGTKYGMLDVWGQGTMVTVSS
VL: EIVMTQSPATLSVSPGERATLSCRASQSVSSNLAWYQQKPGQAPRLLIYGASTRAYGIPARFSGSGSGTEFTLTISSLQSEDFAVYYCQQLILWPPRTFGGGTKVEIK
On to B10, for which, in assay [4], the binding result is “binds”.

B11: 6266.13 Fab (Fab, V domains shown)
VH: QVQLVQSGAEVKKPGSSVKVSCKASGGTLSGYGMSWVRQAPGQGLEWMGNIIPGFGTANYAQKFQGRVTITADESTSTAYMELSSLRSEDTAVYYCARSGGTKYGMLDVWGQGTMVTVSS
VL: EIVMTQSPATLSVSPGERATLSCRASQSVSSNLAWYQQKPGQAPRLLIYGASTRATGIPARFSGSGSGTEFTLTISSLQSEDFAVYYCQQLILWPPRTFGGGTKVEIK
With B11, in assay [4], the binding entry was “binds”.

B12: 6266.9 Fab (Fab, V domains shown)
VH: QVQLVQSGAEVKKPGSSVKVSCKASGGTLKGYGVSWVRQAPGQGLEWMGNIIPGFGTANYAQKFQGRVTITADESTSTAYMELSSLRSEDTAVYYCARGGGTKYGMLDVWGQGTMVTVSS
VL: EIVMTQSPATLSVSPGERATLSCRASQSVSSNLAWYQQKPGQAPRLLIYGASKRATGIPARFSGSGSGTEFTLTISSLQSEDFAVYYCQQLILWPPRTFGGGTKVEIK
In the case of B12, the binding result in assay [4] is “binds”.

B13: 6266.10 Fab (Fab, V domains shown)
VH: QVQLVQSGAEVKKPGSSVKVSCKASGGTLSGYGVSWVRQAPGQGLEWMGNIIPGFGTANYAQKFQGRVTITADESTSTAYMELSSLRSEDTAVYYCARSGGTKYGMLDVWGQGTMVTVSS
VL: EIVMTQSPATLSVSPGERATLSCRASQSVSSNLAWYQQKPGQAPRLLIYGASKRATGIPARFSGSGSGTEFTLTISSLQSEDFAVYYCQQLILWPPRTFGGGTKVEIK
With B13, the binding result in assay [4] is “binds”.

B14: 6266.15 Fab (Fab, V domains shown)
VH: QVQLVQSGAEVKKPGSSVKVSCKASGGTLSGYGVSWVRQAPGQGLEWMGNIIPGFGTANYAQKFQGRVTITADESTSTAYMELSSLRSEDTAVYYCARSGGTKYGELDVWGQGTMVTVSS
VL: EIVMTQSPATLSVSPGERATLSCRASQSVSSNLAWYQQKPGQAPRLLIYGASTRATGIPARFSGSGSGTEFTLTISSLQSEDFAVYYCQQLILWPPRTFGGGTKVEIK
As for B14, the binding result in assay [4] is “binds”.

B15: 6266.4 Fab (Fab, V domains shown)
VH: QVQLVQSGAEVKKPGSSVKVSCKASGGTLSHYGVSWVRQAPGQGLEWMGNIIPGIGTANYAQKFQGRVTITADESTSTAYMELSSLRSEDTAVYYCARSGGTKYGMLDVWGQGTMVTVSS
VL: EIVMTQSPATLSVSPGERATLSCRASQSVSSNLAWYQQKPGQAPRLLIYGASKRATGIPARFSGSGSGTEFTLTISSLQSEDFAVYYCQQLILWPPRTFGGGTKVEIK
Consider B15, for which the binding entry in assay [4] is “binds”.

B16: 6266.2 Fab (Fab, V domains shown)
VH: QVQLVQSGAEVKKPGSSVKVSCKASGGTLSHYGVSWVRQAPGQGLEWMGNIIPGIGTANYAQKFQGRVTITADESTSTAYMELSSLRSEDTAVYYCARSGGTKYGMLDVWGQGTMVTVSS
VL: EIVMTQSPATLSVSPGERATLSCRASQSVSSNLAWYQQKPGQAPRLLIYGASKRATGIPARFSGSGSGTEFTLTISSLQSEDAAVYYCQQLILWPPRTFGGGTKVEIK
As for B16, the binding result in assay [4] is listed as “binds”.

B17: 6266.7 Fab (Fab, V domains shown)
VH: QVQLVQSGAEVKKPGSSVKVSCKASGGTLSHYGVSWVRQAPGQGLEWMGNIIPGIGTANYAQKFQGRVTITADESTSTAYMELSSLRSEDTAVYYCARSGGTKYGELDVWGQGTMVTVSS
VL: EIVMTQSPATLSVSPGERATLSCRASQSVSSNLAWYQQKPGQAPRLLIYGASTRAYGIPARFSGSGSGTEFTLTISSLQSEDAAVYYCQQLILWPPRTFGGGTKVEIK
As to B17, the binding result in assay [4] is on record as “binds”.

B18: 6266.14 Fab (Fab, V domains shown)
VH: QVQLVQSGAEVKKPGSSVKVSCKASGGTLSGYGVSWVRQAPGQGLEWMGNIIPGFGVANYAQKFQGRVTITADESTSTAYMELSSLRSEDTAVYYCARSGGTKWGMLDVWGQGTMVTVSS
VL: EIVMTQSPATLSVSPGERATLSCRASQSVSSNLAWYQQKPGQAPRLLIYGASTRATGIPARFSGSGSGTEFTLTISSLQSEDFAVYYCQQLILWPPRTFGGGTKVEIK
Consider B18, for which, in assay [4], the binding result is on record as “binds”.

B19: 6266.6 Fab (Fab, V domains shown)
VH: QVQLVQSGAEVKKPGSSVKVSCKASGGTLSHYGVSWVRQAPGQGLEWMGNIIPGIGTANYAQKFQGRVTITADESTSTAYMELSSLRSEDTAVYYCARSGGTQYGMLDVWGQGTMVTVSS
VL: EIVMTQSPATLSVSPGERATLSCRASQSVSSNLAWYQQKPGQAPRLLIYGASTRAYGIPARFSGSGSGTEFTLTISSLQSEDAAVYYCQQLILWPPRTFGGGTKVEIK
On to B19, for which the binding entry in assay [4] is listed as “binds”.

B20: 6266.3 Fab (Fab, V domains shown)
VH: QVQLVQSGAEVKKPGSSVKVSCKASGGTLSHYGVSWVRQAPGQGLEWMGNIIPGIGTANYAQKFQGRVTITADESTSTAYMELSSLRSEDTAVYYCARSGGTKYGMLDVWGQGTMVTVSS
VL: EIVMTQSPATLSVSPGERATLSCRASQSVSSNLAWYQQKPGQAPRLLIYGASTRAYGIPARFSGSGSGTEFTLTISSLQSEDFAVYYCQQLILWPPRTFGGGTKVEIK
For the molecule B20, the binding result in assay [4] was “binds”.
